# PubChem BioAssay AID652248, Drosophila RNAi Screening Center | 2013
# Assay: 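Genes that govern switching among distinct shape types in fly blood cells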 (primary screen)
# System: cultured Drosophila hemocytes
# Reagent: long dsRNA against Drosophila genes
# Measured: 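Automated microscopy of stained actin, tubulin and nuclei; single-cell shape measures assigned to five reference shape types, giving a score per dsRNA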
# Scale: elongated score: higher = more elongated bipolar cells; normal round score: higher = more normal rounded cells; teardrop score: higher = more small teardrop-shaped cells
# Hit rule: 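a gene counts as active when its knock-down clearly increases the elongated score; a low similarity score was then used to rank the actives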
# The deposit covers 863 reagents; below is a random part of them. 32 of them (3.7%) count as active. 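Calls also used reproducibility and a similarity ranking whose scores are not deposited; many active genes show only modest elongated scores.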 A number with no mark means an inactive call. A plus sign joins genes that one reagent is predicted to hit. Reagent sequences are not shown. Not given: the amount of reagent, the time to read-out.
gene,dsRNA,"elongated score, rep 1","elongated score, rep 2","normal round score, rep 1","teardrop score, rep 1"
Stacl (GeneID 5740318),DRSC23019,2.92,,-1.57,0.82
Stacl (GeneID 5740318),DRSC25838,-0.53,,-0.63,1.32
Asator (GeneID 43794),DRSC17136,-0.26,,0.93,-1.04
pre-mod(mdg4)-X + mod(mdg4) + pre-mod(mdg4)-AE + 3 more,DRSC16328,-0.04,,-1.44,-0.38
Adk1 (GeneID 41476),DRSC15514,-0.53,-0.53,0.36,0.06
CG2577 (GeneID 32188),DRSC19863,-0.53,,0.25,0.22
CG2577 (GeneID 32188),DRSC23309,-0.53,,-0.29,-0.34
CG2577 (GeneID 32188),DRSC26322,-0.13,,-1.67,2.61
Ire1 (GeneID 42358),DRSC15606,-0.53,,0.4,-0.79
Gp150 (GeneID 37549),DRSC04618,0.16,,-0.53,0.65
Gp150 (GeneID 37549),DRSC29033,1.88,,-2.79,2.18
nmo (GeneID 38890),DRSC08902,-0.47,,0.08,0.42
nmo (GeneID 38890),DRSC11377,-0.24,,0.34,-0.15
nmo (GeneID 38890),DRSC27949,-0.53,,0.91,-0.83
hop (GeneID 32080),DRSC20340,3.13 (active),,-0.18,-0.21
hop (GeneID 32080),DRSC23334,2.17 (active),,-0.29,-0.16
hop (GeneID 32080),DRSC26551,4.45 (active),,-1.79,0.18
14-3-3zeta (GeneID 36059),DRSC05028,0.65 (active),,-0.37,-0.68
14-3-3zeta (GeneID 36059),DRSC27525,4.43 (active),,-3.42,2.48
mRNA-cap (GeneID 32379),DRSC19789,8.67,,-4.65,1.56
Pi4KIIalpha (GeneID 40670),DRSC12322,0.26,,-1.08,0.35
Pi4KIIalpha (GeneID 40670),DRSC12323,-0.53,,0.06,0.49
Pi4KIIalpha (GeneID 40670),DRSC29095,1.54,,-2.06,2.09
Uck (GeneID 42894),DRSC16028,-0.39,,-1.29,2.15
lok (GeneID 35288),DRSC03567,-0.53,,-0.18,-0.03
lok (GeneID 35288),DRSC25866,-0.53,,-1.51,1.01
CycB (GeneID 37618),DRSC04605,1.21,,-1.69,1.06
CG6656 (GeneID 42576),DRSC16085,-0.53,,0.99,-1.13
CG4733 (GeneID 42368),DRSC15634,-0.53,,0.89,-0.7
Sk1 (GeneID 32089),DRSC19774,1.49,,-0.45,-0.4
Gk2 (GeneID 38221),DRSC08610,0.06,,-0.19,0.55
Stam (GeneID 34505),DRSC03444,0.05,,0.35,-0.85
Stam (GeneID 34505),DRSC25607,-0.32,,-4.17,1.46
Ilk (GeneID 53573),DRSC11868,1.76,,-1.69,1.52
CG32373 (GeneID 318000),DRSC08895,-0.53,,0.56,-0.23
mbt (GeneID 32631),DRSC23020,-0.53,,0.41,-0.6
mbt (GeneID 32631),DRSC25818,0.3,,-0.77,0.67
CG2104 (GeneID 40702),DRSC12304,-0.53,,0.69,-1.23
Cad96Ca (GeneID 43026),DRSC14220,2.22,,-0.69,-0.07
Cad96Ca (GeneID 43026),DRSC16693,1.38,,-2.61,2.86
CycH (GeneID 40429),DRSC11861,-0.13,,-1.04,1.73
CycH (GeneID 40429),DRSC21308,-0.53,,-0.01,0.58
bsd (GeneID 36302),DRSC05953,-0.53,,0.14,0.38
Tcs5 (GeneID 38600),DRSC09774,3.2,,-2.5,1.78
Tak1 (GeneID 39659),DRSC20390,0.72,,-1.52,1.12
Tak1 (GeneID 39659),DRSC20561,-0.05,,-1.75,1.86
Tak1 (GeneID 39659),DRSC20562,0.34,,-0.59,0.46
CG5790 (GeneID 35095),DRSC02896,0.6,,-1.53,1.92
CG5790 (GeneID 35095),DRSC26201,-0.14,,0.58,-0.58
fray (GeneID 44233),DRSC16950,-0.03,,-0.39,0.86
wts (GeneID 43651),DRSC22975,-0.53,,-0.85,1.78
wts (GeneID 43651),DRSC25766,-0.27,,-1.27,1.92
Ptp4E (GeneID 31425),DRSC18701,6.53,-0.53,-4.5,0.15
Nil (GeneID 43185),DRSC15953,0.76,,-0.13,0.14
Nil (GeneID 43185),DRSC23322,0.73,,-2.75,0.72
mei-41 (GeneID 32608),DRSC20350,-0.53,,-0.11,-0.23
Drak (GeneID 32097),DRSC19778,1.12,,0.15,-0.39
Drak (GeneID 32097),DRSC23298,3.7,,-1.52,-0.92
Drak (GeneID 32097),DRSC28871,3.61,,-3.64,3.34
CycJ (GeneID 38428),DRSC08653,0.37,,0.09,-0.16
CycJ (GeneID 38428),DRSC29329,3.42,,-1.71,0.41
Mps1 (GeneID 42126),DRSC16273,-0.53,,0.37,-0.4
Cdk5alpha (GeneID 34385),DRSC03290,-0.53,,0.51,-0.15
Cdk5alpha (GeneID 34385),DRSC23301,-0.27,,0.13,-0.65
Cdk4 (GeneID 36854),DRSC07358,1.53 (active),,1.55,-0.79
Cdk4 (GeneID 36854),DRSC27263,4.54 (active),,4.47,0.24
CkIIbeta (GeneID 32132),DRSC20230,-0.53,,0.42,-0.2
PpD6 (GeneID 49780),DRSC00774,-0.21,,-0.12,0.65
PpD6 (GeneID 49780),DRSC23331,0.58,,-0.98,1.55
mtm (GeneID 33845),DRSC03576,-0.53,,0.56,-0.41
CG7094 (GeneID 35065),DRSC03005,0.27,,-2.23,1.03
CG7094 (GeneID 35065),DRSC29956,1.96,,-1.29,0.47
mnb (GeneID 32771),DRSC20353,-0.53,,1.08,-0.96
mnb (GeneID 32771),DRSC23347,-0.25,,-0.75,1.49
mnb (GeneID 32771),DRSC28430,0,,-1.14,1
EDTP (GeneID 36959),DRSC07409,3.42,,-3.62,3.99
CG12069 (GeneID 43643),DRSC14470,1.42,,-0.18,-0.56
CG12069 (GeneID 43643),DRSC26204,2.79,,-1.78,1.4
twe (GeneID 34954),DRSC03628,-0.11,,-0.94,0.49
twe (GeneID 34954),DRSC27109,-0.15,,-0.83,0.67
CG10417 (GeneID 35492),DRSC04846,-0.16,,-0.16,0.25
CG10417 (GeneID 35492),DRSC27173,0.82,,-2.39,3.34
sax (GeneID 35731),DRSC07675,0.32,,-0.22,0.32
sax (GeneID 35731),DRSC26844,0.31,,-0.9,0.17
Ptpmeg (GeneID 38059),DRSC08684,-0.53,,0.23,-0.24
Ptpmeg (GeneID 38059),DRSC26348,-0.04,,-1.1,1.7

Entries above called active (7):
gene,dsRNA,"elongated score, rep 1","elongated score, rep 2","normal round score, rep 1","teardrop score, rep 1"
hop (GeneID 32080),DRSC20340,3.13 (active),,-0.18,-0.21
hop (GeneID 32080),DRSC23334,2.17 (active),,-0.29,-0.16
hop (GeneID 32080),DRSC26551,4.45 (active),,-1.79,0.18
14-3-3zeta (GeneID 36059),DRSC05028,0.65 (active),,-0.37,-0.68
14-3-3zeta (GeneID 36059),DRSC27525,4.43 (active),,-3.42,2.48
Cdk4 (GeneID 36854),DRSC07358,1.53 (active),,1.55,-0.79
Cdk4 (GeneID 36854),DRSC27263,4.54 (active),,4.47,0.24
